For 3 substances, binding results are on record in paper PMC6755085, “Cyclic oligoadenylate signalling mediates Mycobacterium tuberculosis CRISPR defence” (Nucleic Acids Research, 2019).

The target of the test is T1, Mycobacterium tuberculosis Csm4 (Cas5), His8-V5-tagged (Mycobacterium tuberculosis) (UniProt P9WJF6).
T1 sequence: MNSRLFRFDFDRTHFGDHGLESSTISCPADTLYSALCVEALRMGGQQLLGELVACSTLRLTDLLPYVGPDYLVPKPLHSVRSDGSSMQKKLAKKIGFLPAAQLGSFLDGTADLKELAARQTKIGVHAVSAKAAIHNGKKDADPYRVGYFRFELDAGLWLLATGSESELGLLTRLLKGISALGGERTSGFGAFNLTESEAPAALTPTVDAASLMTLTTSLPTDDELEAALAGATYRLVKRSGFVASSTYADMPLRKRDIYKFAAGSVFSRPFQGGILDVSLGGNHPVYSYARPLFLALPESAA
Put plainly: pull-down.

These are yes or no findings as the source states them, for the method shown. In cells and extracts the contact can be indirect. A result given as binding can be weak or reduced; the word gives no strength. Where a sequence is shown, tags or fusion partners need not be part of it.

On to Mycobacterium canettii Csm2 (Cas11), for which the binding entry is given as “binds”.
With “Mycobacterium tuberculosis Csm3 (Cas7) (from UniProt P9WJF9)”, the binding entry was “binds”.
On to “Mycobacterium tuberculosis Csm3 (Cas7) D35A (from UniProt P9WJF9)”, for which the binding result is on record as “binds”.
